The list is a part of this screen's results and no random one: it is rich in T/C values a quarter to a half above the control, in often repeated tests (any T/C) and in doses without a T/C. Other doses and runs of a compound stand elsewhere. T/C: endpoint of the treated group in % of that of the vehicle group. For survival time, this PubChem deposit counts one and a half times the control or more as active, and values a quarter to a half above the control carry no call in these data; other NCI protocols may use other cut-offs. Schedule codes are those of the source, read here as Q, the interval in days (D) or hours (H), X, the number of doses. Some schedule codes hold Z or #, which are not explained here. Some T/C values carry the count of animals alive at the toxicity check (mostly the fifth day); without a count, all were alive then.
System: BDF1 mice, L1210 leukemia sc
Assay: NCI In Vivo Anticancer Drug Screen. Data for tumor model L1210 Leukemia (subcutaneous) in B6D2F1 (BDF1) mice
Conditions: higher T/C = longer survival
How it was run: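 Transplantable tumor-bearing mice; survival or tumor size recorded; result = T/C, treated vs vehicle control.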

SMILES: O=C(Nc1ccc(NC2=NCCN2)cc1)c1ccc(C(=O)Nc2ccc(NC3=NCCN3)cc2)cc1
- T/C (T/C endpoint: median survival time, dose: 3.0 mg/kg/injection, schedule: Q01DX Z (sc), vehicle: water): 145 % of control
- T/C (T/C endpoint: median survival time, dose: 23.0 mg/kg/injection, schedule: Q01DX Z (sc), vehicle: water): 140 % of control
- T/C (T/C endpoint: median survival time, dose: 39.0 mg/kg/injection, schedule: Q01DX Z (sc), vehicle: water): 130 % of control

SMILES: CNC=O
- T/C (T/C endpoint: median survival time, dose: 518.0 mg/kg/injection, schedule: Q01DX Z (sc), vehicle: saline): 125 % of control [8 of 10 alive]

SMILES: O=NN(CCCl)C(=O)N[C@H]1CCCC[C@@H]1Cl
- T/C (T/C endpoint: median survival time, dose: 108.0 mg/kg/injection, schedule: Q01DX Z (oral), vehicle: carboxymethylcellulose (CMC)): 136 % of control
- T/C (T/C endpoint: median survival time, dose: 108.0 mg/kg/injection, schedule: Q01DX Z (sc), vehicle: carboxymethylcellulose (CMC)): 142 % of control
- T/C (T/C endpoint: median survival time, dose: 180.0 mg/kg/injection, schedule: Q01DX Z (sc), vehicle: carboxymethylcellulose (CMC)): 125 % of control

SMILES: C[C@H](CN1CC(=O)NC(=O)C1)N1CC(=O)NC(=O)C1
- T/C (T/C endpoint: median survival time, dose: 16.0 mg/kg/injection, schedule: Q01DX009 (ip), vehicle: water, evaluated on day 21): 138 % of control
- T/C (T/C endpoint: median survival time, dose: 16.0 mg/kg/injection, schedule: Q01DX009 (ip), vehicle: water, evaluated on day 30): 136 % of control
- T/C (T/C endpoint: median survival time, dose: 32.0 mg/kg/injection, schedule: Q01DX009 (ip), vehicle: water): 135 % of control
- T/C (T/C endpoint: median survival time, dose: 64.0 mg/kg/injection, schedule: Q01DX009 (ip), vehicle: water): 138 % of control
- T/C (T/C endpoint: median survival time, dose: 128.0 mg/kg/injection, schedule: Q01DX009 (ip), vehicle: water, evaluated on day 21): 144 % of control
- T/C (T/C endpoint: median survival time, dose: 128.0 mg/kg/injection, schedule: Q01DX009 (ip), vehicle: water, evaluated on day 30): 125 % of control
- T/C (T/C endpoint: median survival time, dose: 256.0 mg/kg/injection, schedule: Q01DX009 (ip), vehicle: water): 125 % of control [9 of 10 alive]

SMILES: CCCC(=O)NC1=C(N2CC2)C(=O)C(NC(=O)CCC)=C(N2CC2)C1=O
- T/C (T/C endpoint: median survival time, dose: 5.0 mg/kg/injection, schedule: Q01DX Z (sc), vehicle: saline): 144 % of control

SMILES: CN(Cc1cnc2nc(N[Si](C)(C)C)nc(N[Si](C)(C)C)c2n1)c1ccc(C(=O)NC(CCC(=O)O[Si](C)(C)C)C(=O)O[Si](C)(C)C)cc1 (stereo not given)
- T/C (T/C endpoint: mean survival time, dose: 4.0 mg/kg/injection, schedule: Q04DX003 (ip), vehicle: Klucel (hydroxypropylcellulose) (HPC)): 144 % of control
- T/C (T/C endpoint: mean survival time, dose: 16.0 mg/kg/injection, schedule: Q04DX003 (ip), vehicle: Klucel (hydroxypropylcellulose) (HPC)): 148 % of control

SMILES: O=C(Nc1ccc(C(=O)Nc2ccc(C3=NCCN3)cc2)cc1)Nc1ccc(C2=NCCN2)cc1
- T/C (T/C endpoint: median survival time, dose: 300.0 mg/kg/injection, schedule: Q01DX Z (sc), vehicle: methylcellulose (MC)): 145 % of control

SMILES: O=C1CN(CCN2CC(=O)NC(=O)C2)CC(=O)N1
- T/C (T/C endpoint: median survival time, dose: 14.0 mg/kg/injection, schedule: Q03HX024 (sc), vehicle: Klucel (hydroxypropylcellulose) (HPC)): 145 % of control
- T/C (T/C endpoint: median survival time, dose: 25.0 mg/kg/injection, schedule: Q01DX009 (sc), vehicle: steroid suspending solution): 125 % of control
- T/C (T/C endpoint: median survival time, dose: 50.0 mg/kg/injection, schedule: Q01DX009 (ip), vehicle: steroid suspending solution): 130 % of control
- T/C (T/C endpoint: median survival time, dose: 65.0 mg/kg/injection, schedule: Q01DX009 (sc), vehicle: Klucel (hydroxypropylcellulose) (HPC)): 135 % of control
- T/C (T/C endpoint: median survival time, dose: 108.0 mg/kg/injection, schedule: Q01DX009 (sc), vehicle: Klucel (hydroxypropylcellulose) (HPC)): 140 % of control
- T/C (T/C endpoint: median survival time, dose: 180.0 mg/kg/injection, schedule: Q01DX009 (sc), vehicle: Klucel (hydroxypropylcellulose) (HPC)): 130 % of control
- T/C (T/C endpoint: median survival time, dose: 180.0 mg/kg/injection, schedule: Q04DX003 (sc), vehicle: Klucel (hydroxypropylcellulose) (HPC)): 135 % of control
- T/C (T/C endpoint: median survival time, dose: 200.0 mg/kg/injection, schedule: Q01DX009 (sc), vehicle: steroid suspending solution): 130 % of control
- T/C (T/C endpoint: median survival time, dose: 300.0 mg/kg/injection, schedule: Q04DX003 (sc), vehicle: Klucel (hydroxypropylcellulose) (HPC)): 145 % of control
- T/C (T/C endpoint: median survival time, dose: 400.0 mg/kg/injection, schedule: Q04DX003 (ip), vehicle: steroid suspending solution): 125 % of control
- T/C (T/C endpoint: median survival time, dose: 400.0 mg/kg/injection, schedule: Q04DX003 (sc), vehicle: steroid suspending solution): 145 % of control
- T/C (T/C endpoint: median survival time, dose: 500.0 mg/kg/injection, schedule: Q04DX003 (sc), vehicle: Klucel (hydroxypropylcellulose) (HPC)): 140 % of control
- T/C (T/C endpoint: median survival time, dose: 800.0 mg/kg/injection, schedule: Q04DX003 (ip), vehicle: steroid suspending solution): 135 % of control
- T/C (T/C endpoint: median survival time, dose: 833.0 mg/kg/injection, schedule: Q04DX003 (sc), vehicle: Klucel (hydroxypropylcellulose) (HPC)): 140 % of control
- T/C (T/C endpoint: median survival time, dose: 1388.0 mg/kg/injection, schedule: Q04DX003 (sc), vehicle: Klucel (hydroxypropylcellulose) (HPC)): 125 % of control

SMILES: Cc1cccc2c(Nc3ccc(NS(C)(=O)=O)cc3)c3ccccc3nc12
- T/C (T/C endpoint: median survival time, dose: 40.0 mg/kg/injection, schedule: Q01DX009 (ip), vehicle: saline with Tween-80): 125 % of control
- T/C (T/C endpoint: median survival time, dose: 80.0 mg/kg/injection, schedule: Q01DX009 (ip), vehicle: saline with Tween-80): 125 % of control
